PubChem BioAssay AID493246, Drosophila RNAi Screening Center, 2011

Assay: 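Identify essential fly genes by loss of cell viability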 (primary screen)
System: Drosophila Kc and S2R+ cells
Reagents: long dsRNA against Drosophila genes
Measurement: 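Raw, unnormalised count of remaining cells in each well; per-plate z-scores of cell number underlie the calls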
Reading the numbers: Kc cell number and S2R+ cell number: higher = more cells remaining
Rule for the call: 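Counted as a hit if cell number falls by a z-score of at least 3 within its plate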
The deposit covers about 21,000 reagents; this is a random part of those that have a named target and a result. In the full data, 429 (2%) got an active call. 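Values are raw and not normalised between plates; calls rest on per-plate z-scores that were not deposited.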 No sequences are given here. Not given: the amount of reagent, the time to read-out.

mthl1 [DRSC19905]
- Kc cell number, rep 1: 1.51e6
- Kc cell number, rep 2: 1.51e6
- S2R+ cell number, rep 1: 1.07e6
- S2R+ cell number, rep 2: 1.11e6
- outcome: inactive

CG6204 [DRSC15991]
- Kc cell number, rep 1: 1.51e6
- Kc cell number, rep 2: 1.68e6
- S2R+ cell number, rep 1: 1.14e6
- S2R+ cell number, rep 2: 1.15e6
- outcome: inactive

beat-Ic [DRSC01524]
- Kc cell number, rep 1: 1.48e6
- Kc cell number, rep 2: 1.52e6
- S2R+ cell number, rep 1: 9.65e5
- S2R+ cell number, rep 2: 1.19e6
- outcome: inactive

beat-Ic [DRSC03491]
- Kc cell number, rep 1: 1.63e6
- Kc cell number, rep 2: 1.67e6
- S2R+ cell number, rep 1: 1.24e6
- S2R+ cell number, rep 2: 1.46e6
- outcome: inactive

CG34328 [DRSC19256]
- Kc cell number, rep 1: 1.44e6
- Kc cell number, rep 2: 1.75e6
- S2R+ cell number, rep 1: 1.18e6
- S2R+ cell number, rep 2: 1.26e6
- outcome: inactive

Hr38 [DRSC03345]
- Kc cell number, rep 1: 1.53e6
- Kc cell number, rep 2: 1.54e6
- S2R+ cell number, rep 1: 1.03e6
- S2R+ cell number, rep 2: 3.01e5
- outcome: inactive

CG6191 [DRSC05938]
- Kc cell number, rep 1: 1.22e6
- Kc cell number, rep 2: 1.41e6
- S2R+ cell number, rep 1: 7.75e5
- S2R+ cell number, rep 2: 8.05e5
- outcome: inactive

CG30098 [DRSC05605]
- Kc cell number, rep 1: 4.81e5
- S2R+ cell number, rep 1: 7.57e5
- outcome: inactive

rtet [DRSC14160]
- Kc cell number, rep 1: 1.66e6
- Kc cell number, rep 2: 1.63e6
- S2R+ cell number, rep 1: 1.34e6
- S2R+ cell number, rep 2: 1.35e6
- outcome: inactive

dao [DRSC01960]
- Kc cell number, rep 1: 1.53e6
- Kc cell number, rep 2: 1.61e6
- S2R+ cell number, rep 1: 1.19e6
- S2R+ cell number, rep 2: 1.33e6
- outcome: inactive

Mal-A7 [DRSC06077]
- Kc cell number, rep 1: 1.76e6
- Kc cell number, rep 2: 1.72e6
- S2R+ cell number, rep 1: 1.41e6
- S2R+ cell number, rep 2: 1.54e6
- outcome: inactive

Ptx1 [DRSC16804]
- Kc cell number, rep 1: 1.53e6
- Kc cell number, rep 2: 1.56e6
- S2R+ cell number, rep 1: 1.03e6
- S2R+ cell number, rep 2: 1.19e6
- outcome: inactive
